# Some of the results follow.
# Target: T1, OsSMF1 (Oryza sativa, UniProt Q6ZLB0 1-436)
# T1 sequence: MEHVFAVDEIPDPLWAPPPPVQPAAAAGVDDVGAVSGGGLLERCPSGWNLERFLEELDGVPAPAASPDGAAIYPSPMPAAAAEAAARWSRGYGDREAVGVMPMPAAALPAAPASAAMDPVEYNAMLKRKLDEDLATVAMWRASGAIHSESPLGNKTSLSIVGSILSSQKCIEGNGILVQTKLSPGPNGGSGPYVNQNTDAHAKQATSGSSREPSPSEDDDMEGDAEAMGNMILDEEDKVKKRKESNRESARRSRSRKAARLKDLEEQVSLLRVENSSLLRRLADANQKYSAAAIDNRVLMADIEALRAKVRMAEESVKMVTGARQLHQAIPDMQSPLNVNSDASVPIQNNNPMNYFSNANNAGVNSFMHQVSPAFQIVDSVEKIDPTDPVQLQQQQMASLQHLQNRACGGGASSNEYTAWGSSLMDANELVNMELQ
# Experiment: protein-binding microarray (RPBM); PBS, 2% BSA, 51.3 ng/ul salmon testes DNA, 50 uM zinc acetate, 200 nM TF, 25 C, 1 h; high values mean tight binding
# Conditions: protein: recombinant; tags: N-terminal polyhistidine and DsRed monomer fusion (pET32a); chain copies: 2; label: CyDye5-dUTP incorporated in the synthesized complementary strand; 3' TTTTT single-stranded linker to array surface; dsDNA, one strand shown
# In short: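 A custom Agilent array was converted to double-stranded form by primer extension with Cy5-dUTP and blocked with 2% BSA. Protein at 200 nM in PBS with 2% BSA, salmon testes DNA and 50 µM zinc acetate was applied for 1 h at 25 °C, followed by washing. The proteins were polyhistidine–DsRed N-terminal fusions of transcription factors, expressed in E. coli BL21-CodonPlus and Ni–NTA-purified. The binding signal is per-feature fluorescence intensity (arbitrary units) from an Axon 4000B scanner.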
row,Sequence,binding signal
1,AATGGTAAAATCCCACGTCATCGTAACCAAGGTGCGACCCCGGAGTCACCTAGTGCAG,17900 fluorescence intensity (a.u.)
2,GTGTTTTGTTCTGGTCACAAGTTAGTCATGCCAAACTTTCCGGAGTCACCTAGTGCAG,4230 fluorescence intensity (a.u.)
3,AGATTGGAGTAGTTAACCTTGGCAAGCTCACCCGTCAACTCGGAGTCACCTAGTGCAG,3320 fluorescence intensity (a.u.)
4,TGGATGGGATGTAGTACTACTGTGGCTTCGCCACCGGATCCGGAGTCACCTAGTGCAG,3260 fluorescence intensity (a.u.)
5,GCGTCGGACGGTGGCTTGCCGGCTGCAATGATGTGGTGCCCGGAGTCACCTAGTGCAG,3900 fluorescence intensity (a.u.)
6,CTCTCAACCGGGCCCTGCTCCACCGCAGCGCCACCAACAACGGAGTCACCTAGTGCAG,22600 fluorescence intensity (a.u.)
7,CACCTCGGTACGTGTTCGACATGTTACACATATTTGATCTCGGAGTCACCTAGTGCAG,5460 fluorescence intensity (a.u.)
8,CTCCGGTGCACGTAGGTCAATTAGGCGTACAGTCACCGGTCGGAGTCACCTAGTGCAG,8510 fluorescence intensity (a.u.)
9,CACCCTTCTCCGACGAGAACCCCAACCGCCGCAACCCGGACGGAGTCACCTAGTGCAG,3200 fluorescence intensity (a.u.)
10,AATCTAAAGACAGTTGAACACAACGCACTTGTCCCTCACACGGAGTCACCTAGTGCAG,22600 fluorescence intensity (a.u.)
11,CATCCCACAAAGTACACAAAACTCAGAGCCCTTCCATCCTCGGAGTCACCTAGTGCAG,21000 fluorescence intensity (a.u.)
12,CGAGGCTCGGTGAGGTTGACAGCACTGCACTTCACAGTTCCGGAGTCACCTAGTGCAG,3580 fluorescence intensity (a.u.)
13,TCACGCTCATACAGTCATAGTACTACGTACTCCATACTGCCGGAGTCACCTAGTGCAG,4350 fluorescence intensity (a.u.)
14,CCTTTCCGGTCATATCAGCGTCCTTCGCCCGACCAATCACCGGAGTCACCTAGTGCAG,3340 fluorescence intensity (a.u.)
15,TCCGATTGCATTTTCACAAGCGAAAATAAGGTGACGTCATCGGAGTCACCTAGTGCAG,20700 fluorescence intensity (a.u.)
16,CAAGGCGGTTGGCACTGAGACCCTGCCACGTAGACGAGGGCGGAGTCACCTAGTGCAG,14500 fluorescence intensity (a.u.)
17,TCCACTGCCTAGACACGCCACGACTTGGACCATCAGCTAGCGGAGTCACCTAGTGCAG,4280 fluorescence intensity (a.u.)
18,CAGGGGCTCCAATACTGACGCGTCGCCGGCGTACGTCCTCCGGAGTCACCTAGTGCAG,4300 fluorescence intensity (a.u.)
19,CTATGGCAGTACGGAGGGCGGTATCGGCCTACGTGGCACACGGAGTCACCTAGTGCAG,19000 fluorescence intensity (a.u.)
20,TGGCCCATTACAAAGCAACGTCACCGTTCCGGGCAGAAAACGGAGTCACCTAGTGCAG,4950 fluorescence intensity (a.u.)
21,TGCCGCGCGGAGCTTTTAAAACGCCGCAACTTCCTTCCTTCGGAGTCACCTAGTGCAG,20800 fluorescence intensity (a.u.)

row,Sequence,binding signal
1,AAATTAAAATTGATCGAAATTGGGAACAAATTAAGCCAGACGGAGTCACCTAGTGCAG,33800 fluorescence intensity (a.u.)
2,TGATCAGCTCGCCACGTCACCGTCACCGCCTCGCCTCGCTCGGAGTCACCTAGTGCAG,35300 fluorescence intensity (a.u.)
3,CATCTCCTGTCGCGTCGTCCTTCGCCACGACGATCCCCTCCGGAGTCACCTAGTGCAG,4180 fluorescence intensity (a.u.)
4,TCCAGATCAAACTGCCACGTGAGCACCACATCAATGTCACCGGAGTCACCTAGTGCAG,23200 fluorescence intensity (a.u.)
5,CGCCGTCCCGGAGTGGGACAGGCGGCGGGCGGGATCCGACCGGAGTCACCTAGTGCAG,28700 fluorescence intensity (a.u.)
6,AAATACTGTAGTAAGTATACGTGTTATGCTCACTTTTGTACGGAGTCACCTAGTGCAG,4020 fluorescence intensity (a.u.)
7,CACTCTTTATTTTATTATGACTTGATTCGTCATCAAATGTCGGAGTCACCTAGTGCAG,3870 fluorescence intensity (a.u.)
8,TTACACCTTGTCACCGAACGCGATTTGTTTGTTTCGCCCCCGGAGTCACCTAGTGCAG,4710 fluorescence intensity (a.u.)
9,GACCATTTGTCACACTGGAAAGTCCGCGTTTCATTTCCTGCGGAGTCACCTAGTGCAG,25800 fluorescence intensity (a.u.)
10,ACATCAAGAGACACATCAGCCCACTGCTAGACTGCTAATTCGGAGTCACCTAGTGCAG,3400 fluorescence intensity (a.u.)
11,ATCCCAAGCTGGCCCTCCACGTCGGCCACGTGTGGAGGTGCGGAGTCACCTAGTGCAG,15300 fluorescence intensity (a.u.)
12,TCTCCTCGCTTCCCATTCCTGGGCTCTGACTCGGACGCCCCGGAGTCACCTAGTGCAG,3960 fluorescence intensity (a.u.)
13,ATATACGATTCGTAATTTGATATGACTAATTAACTACACCCGGAGTCACCTAGTGCAG,3260 fluorescence intensity (a.u.)
14,CAACGTCCGGATACGTTTCTCATACGTCAGCCAAGCGCATCGGAGTCACCTAGTGCAG,9610 fluorescence intensity (a.u.)
15,TATGCTCGGTGTGTTTATCATTGGTGTGATTGTGTATAGTCGGAGTCACCTAGTGCAG,26800 fluorescence intensity (a.u.)
16,AGCATTGCAACGACGACGTCATCGAGTCATCGCTCGAGCTCGGAGTCACCTAGTGCAG,7670 fluorescence intensity (a.u.)
17,CCTCCGCGCGGCCACGCCTACTCACAAAACCCATCCACGTCGGAGTCACCTAGTGCAG,4670 fluorescence intensity (a.u.)
18,TGAGCTTGTGATGGTGTCATGGTTATATTTTCGTGTTGCCCGGAGTCACCTAGTGCAG,3980 fluorescence intensity (a.u.)
19,CATGTAGAGTTGTAGACGTTACGCACAGTGACGCCATCTTCGGAGTCACCTAGTGCAG,3620 fluorescence intensity (a.u.)
20,ACATTGCAATAGTGCAACCGTGGCATCGTTCTTTAGGTGGCGGAGTCACCTAGTGCAG,5790 fluorescence intensity (a.u.)
21,TAATTGGGGTGATGTGGCTAATTCTCAAAGCAGTTTTATACGGAGTCACCTAGTGCAG,5820 fluorescence intensity (a.u.)

# 3 consecutive entries already listed:
row,Sequence,binding signal
13,TCACGCTCATACAGTCATAGTACTACGTACTCCATACTGCCGGAGTCACCTAGTGCAG,4350 fluorescence intensity (a.u.)
14,CCTTTCCGGTCATATCAGCGTCCTTCGCCCGACCAATCACCGGAGTCACCTAGTGCAG,3340 fluorescence intensity (a.u.)
15,TCCGATTGCATTTTCACAAGCGAAAATAAGGTGACGTCATCGGAGTCACCTAGTGCAG,20700 fluorescence intensity (a.u.)
